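Methionyl-tRNA synthetase (putative), Leishmania donovani (UniProt E9BF75). Primary screen of methionyl-tRNA synthetase; the read-out is not stated. The test concentration is not given. Values are per cent inhibition. About 68,000 compounds were tested under these conditions; 0.035% (about 24) showed 50% or more at least once.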

Sequences of proteins named here, by UniProt entry; tags and fusion partners are left off.
UniProt E9BF75, entry or part of it: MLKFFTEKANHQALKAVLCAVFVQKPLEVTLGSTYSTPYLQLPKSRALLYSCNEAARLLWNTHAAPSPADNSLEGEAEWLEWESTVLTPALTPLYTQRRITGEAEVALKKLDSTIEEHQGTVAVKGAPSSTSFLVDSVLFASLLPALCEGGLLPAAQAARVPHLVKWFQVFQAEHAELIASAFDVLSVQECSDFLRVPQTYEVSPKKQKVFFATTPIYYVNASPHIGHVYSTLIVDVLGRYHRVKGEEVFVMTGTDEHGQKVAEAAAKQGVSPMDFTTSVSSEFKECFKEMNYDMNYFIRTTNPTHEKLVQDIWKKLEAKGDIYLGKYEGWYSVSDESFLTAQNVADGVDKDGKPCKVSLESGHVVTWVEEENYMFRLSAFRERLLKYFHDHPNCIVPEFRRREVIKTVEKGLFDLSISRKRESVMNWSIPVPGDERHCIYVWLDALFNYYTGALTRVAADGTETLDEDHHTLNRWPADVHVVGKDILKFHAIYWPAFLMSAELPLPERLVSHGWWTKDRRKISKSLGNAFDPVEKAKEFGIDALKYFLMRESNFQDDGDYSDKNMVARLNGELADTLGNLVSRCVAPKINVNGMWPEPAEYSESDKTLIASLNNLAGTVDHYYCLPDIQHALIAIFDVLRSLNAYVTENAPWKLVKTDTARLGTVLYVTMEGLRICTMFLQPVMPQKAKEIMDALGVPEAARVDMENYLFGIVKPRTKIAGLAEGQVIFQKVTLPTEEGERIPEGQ

Results are percentages, as filed. The controls that fix the scale are not given in the record; negative values are as filed. The compounds are a random part of those screened.

Compound	Inhibition
Cn1cc(C(=O)Nc2ccc3c(c2)CN(C(=O)C2CC2)CC3)nn1	8.168%
CCCc1cc(=O)[nH]c(-n2nc(-c3cccs3)cc2N)n1	4.802%
COc1ccc(NC(=O)c2nc(C)sc2C(C)C)cn1	18.77%
O=C(CC1CC1)NC[C@]12COC[C@H]1CN(c1ncccn1)C2	9.441%
COc1ccc(F)c(-c2nccn2CCN2CCCC2)c1	8.681%
Cc1ccc(F)cc1NC(=O)CCn1cncn1	4.348%
COCCn1cc(NCc2cccc3cn[nH]c23)cn1	13.71%
CS(=O)(=O)c1nccn1Cc1ccc(OC(F)F)cc1	13.19%
CNC(=O)C1CN(C(=O)c2ccccc2)Cc2cn(C)nc21 (stereo not given)	5.312%
CC(C)=CCN1C(=O)[C@H]2CC[C@@H]1CN(C(=O)CCc1n[nH]c(C)c1C)C2	3.161%
CCn1cc2c(n1)CN(Cc1ccc(F)cc1)CC2COCC1CC1 (stereo not given)	6.667%
CCOCCCOC(=O)c1ccc2c(c1)[nH]c(=O)n2C	11.56%
CCn1cc(CN2CCCN(C(=O)CCn3cc(C)cn3)CC2)cn1	14.53%
COCCn1cnnc1Cn1ccnc1-c1ccccc1C	11.18%
O=C(Cc1cnccn1)N1C[C@H]2CC[C@@H]1CN(Cc1cscn1)C2	12.54%
CC(C)C(C)(C#N)NC(=O)CN1CCCN(Cc2ccccc2F)CC1 (stereo not given)	9.157%
CCC(O)CN1CCN(C(=O)c2cc3ccccc3n2CC)CC1 (stereo not given)	7.386%
CN(C)[C@@H]1COC[C@@H]2CN(Cc3ccc4c(c3)OCO4)C[C@@H]21	12.2%
COCC1CN(S(=O)(=O)c2cccs2)Cc2ncnn2C1 (stereo not given)	13.45%
OC(COCc1ccccc1)CN1CC(n2cccn2)C1 (stereo not given)	21.86%
CCc1cccc(C)c1NC(=O)NCCCN(CC)S(C)(=O)=O	12.47%
CCc1nccn1C1CCCN(C(=O)Cc2cn3ccccc3n2)C1 (stereo not given)	9.722%
O=c1[nH]nc2nc(N3CCSCC3)ccn12	6.211%
O=C(c1cc[nH]n1)N(Cc1cccc(O)c1)CC1CC1	11.81%
Cc1ncsc1CNC(=O)N1CCN(Cc2ccccc2)CC1C (stereo not given)	15.73%
O=C(c1ccc(=O)[nH]c1)N1C[C@@H]2CC[C@H](C1)N(Cc1ccccc1)C2	-18.4%
O=C1C[C@H]2[C@H](CCN2C(=O)c2cc[nH]n2)N1Cc1cccnc1	17.93%
Cc1nn(C)c(C)c1CCC(=O)N(C)Cc1ccc2nsnc2c1	8%
c1c[nH]c2nc(C3CCNC3)nc-2c1 (stereo not given)	9.143%
CS(=O)(=O)NC[C@H]1OC[C@@H]2CCN(CCc3ccccc3)C[C@@H]21	3.279%
Cc1ccc(NC(=O)NCC2CCS(=O)(=O)C2)cc1Cl (stereo not given)	14.04%
CC(C)Oc1ccc2c(NC(=O)[C@H](C)O)nn(CC(F)(F)F)c2c1	13.15%
CN1CC(NC(=O)Nc2cnn(-c3ccccc3Cl)c2)CCC1=O (stereo not given)	17.13%
Cc1ccccc1CN(CCN(C)C)Cc1ccccc1C(=O)O	3.581%
O=C(NCCN1CCOCC1)c1ccn(-c2ccccc2F)n1	4.57%
O=S(=O)(c1cccs1)N1CC[C@H]2[C@H]1CCN2CC1CC1	6.667%
Cc1cc(C(F)(F)F)c2c(C3CCN(S(=O)(=O)N(C)C)CC3)noc2n1	20.89%
Cn1cccc(NC(=O)COc2ccc(Cl)cc2)c1=O	14.14%
Fc1cccnc1OC[C@@]12CCO[C@@H]1CCN(CC1CCOCC1)C2	5.576%
Cc1ccc2oc(SCC(=O)NC(C)(C)C)nc2n1	2.915%
Cc1ccc(O)c(C(=O)N2CCOCC2c2c(C)nn(C)c2C)c1 (stereo not given)	12.5%
O=C1COC2(CCN(Cc3cccnc3)CC2)CN1c1ccccc1	9.302%
CCCOc1cccc(NC(=O)NC2CCc3nc(C)nn3C2)c1 (stereo not given)	13.24%
Cc1ccc2nc(-c3nc4c([nH]3)CCCNC4=O)cn2c1	3.75%
CCOC(=O)CNC(=O)c1scnc1C	6.266%
Cc1ccc(C(=O)NC2CCCN(c3ncccn3)C2)cn1 (stereo not given)	5.245%
COc1ccnc(N2CCN(CC(O)CN3CCOCC3)CC2)n1 (stereo not given)	19.43%
Cn1cnc2c1C(COCC1CCOCC1)CN(C(=O)C1CC=CC1)C2 (stereo not given)	17.46%
COc1ccc2cc(NC(=O)CCNc3nc(C)cc(C)n3)cnc2c1	14.24%
COc1cc(NC(=O)N(C)CC2CC2)ncn1	13.17%
CN(CC(=O)NC(C)(C)C)Cc1cccc2c1OCCO2	0.304%
COCCS(=O)(=O)Nc1ccc(-n2nccc2C(F)(F)F)cc1	10.99%
Cc1c(C(=O)N[C@H]2CN(CCS(C)(=O)=O)C[C@@H]2C2CC2)cnn1C	6.832%
O=C1CCOCCN1Cc1ccc(C(F)(F)F)c(F)c1	10.05%
COc1ccc(Cc2nnc(SC)o2)cc1OC	10.73%
CCOc1ccc(NC(=O)Cn2cc(I)cn2)cc1	2.915%
CCCN(CCC)C(=O)c1cnn(C)c1C	-0.2825%
CN(C)CCN1CCO[C@@H]2CN(C(=O)c3cccs3)CC[C@@H]2C1	17.85%
Cc1ccc(CC(=O)N2CCN(CC(C)O)CC2)cn1 (stereo not given)	11.48%
CCn1c(C)cc(C(=O)N2C[C@@H](C(=O)O)[C@H](c3ccccc3C)C2)c1C	23.12%
CCCC(=O)NC(C)c1nnc2n1CCC2 (stereo not given)	17.61%
COc1cc(C)ccc1OCc1nc(C(=O)N2CCCO2)co1	8.447%
CC(C)NC(=O)NC(=O)C(C)N1CCN(C2CCN(C(C)C)CC2)CC1 (stereo not given)	13.77%
N#Cc1ccc(OC[C@]23COC[C@H]2CN(Cc2nccs2)C3)nc1	12.5%
O=C(NCc1cccnc1)N1CCc2ncnc(NC3CC3)c2CC1	18.09%
Cc1cc(N[C@H](CO)COCc2ccccc2)n2nc(C)cc2n1	12.06%
Cc1cc(C)n2nc(C(=O)N3CCCC4(CNC(=O)O4)C3)cc2n1 (stereo not given)	4.178%
COc1ccc(Br)cc1SCCCS(C)(=O)=O	19.2%
CSc1ccccc1C(C(=O)O)N(C)CC1CCOCC1 (stereo not given)	1.25%
Cc1csc(N2CCCN(C(=O)Cn3cncn3)CC2)n1	20.67%
CCOc1ccc(CNC(=O)N(C)CC(C)(C)O)cc1C	8.383%
O[C@H]1CN(CCOc2ccc(F)cc2)CC[C@@]12CCCO2	17.36%
CCC(CC)c1cc(CNC(=O)N2CCOCC2CC)on1 (stereo not given)	4.833%
CN(C)C(=O)[C@@H]1CCO[C@@H]2CCN(c3ncccn3)C[C@H]21	4.235%
O=C(NCC1CC1)Nc1cnc2ccc(F)cc2c1O	18.75%
CC(O)(CNc1ccc(Cl)c(C#N)n1)c1ccccc1 (stereo not given)	4.393%

The first 6 entries again:

{"compound": "Cn1cc(C(=O)Nc2ccc3c(c2)CN(C(=O)C2CC2)CC3)nn1", "Inhibition": 8.168}
{"compound": "CCCc1cc(=O)[nH]c(-n2nc(-c3cccs3)cc2N)n1", "Inhibition": 4.802}
{"compound": "COc1ccc(NC(=O)c2nc(C)sc2C(C)C)cn1", "Inhibition": 18.77}
{"compound": "O=C(CC1CC1)NC[C@]12COC[C@H]1CN(c1ncccn1)C2", "Inhibition": 9.441}
{"compound": "COc1ccc(F)c(-c2nccn2CCN2CCCC2)c1", "Inhibition": 8.681}
{"compound": "Cc1ccc(F)cc1NC(=O)CCn1cncn1", "Inhibition": 4.348}

Data taken from ChEMBL document CHEMBL3988442, “University of Dundee, Small-Polar-MMV Screening Library” (2021).